This assay concerns the target Yes-associated protein 1 (YAP1) (human (endogenous in AGS and GA0518)), P46937. Description: co-IP. The following applies: remark: other sources report otherwise.

These are yes or no findings as the source states them, for the method shown. Binding seen in cells or lysates may run through a third protein. Some results given as binding are weak or reduced against the parent protein; the word gives no strength.

B1: TEAD3, Q99594 1-435 (protein)
chain: MASNSWNASSSPGEAREDGPEGLDKGLDNDAEGVWSPDIEQSFQEALAIYPPCGRRKIILSDEGKMYGRNELIARYIKLRTGKTRTRKQVSSHIQVLARKKVREYQVGIKAMNLDQVSKDKALQSMASMSSAQIVSASVLQNKFSPPSPLPQAVFSTSSRFWSSPPLLGQQPGPSQDIKPFAQPAYPIQPPLPPTLSSYEPLAPLPSAAASVPVWQDRTIASSRLRLLEYSAFMEVQRDPDTYSKHLFVHIGQTNPAFSDPPLEAVDVRQIYDKFPEKKGGLKELYEKGPPNAFFLVKFWADLNSTIQEGPGAFYGVSSQYSSADSMTISVSTKVCSFGKQVVEKVETEYARLENGRFVYRIHRSPMCEYMINFIHKLKHLPEKYMMNSVLENFTILQVVTSRDSQETLLVIAFVFEVSTSEHGAQHHVYKLVKD
In the case of B1, the binding entry is “binds”.
